Assay results: PubChem BioAssay AID1347076 (National Center for Advancing Translational Sciences (NCATS), 2019)
About 13,000 (3.2%) of roughly 400,000 compounds were called active. Inconclusive results, whose numbers are uncertain, are shown with a selection of clear calls. Calls follow the shape of the dose curve; as a rule, active = well fitted cell-killing curve with a large enough effect; inconclusive = small, poorly fitted or top-dose-only effect, or effect the other way; inactive = flat fitted curve, though single readings scatter. A potency beside an inconclusive call is a rough fit, not a confirmed value.

Assay: qHTS assay for MDR1-selective chemotherapeutics: Primary screen using the drug-selected MDR subline cells KB-V1; also: nearly all actives have a fitted effect of over 60% in size
Conditions: KB-V1 MDR cells viability, CellTiter-Glo, 72 h; activity change, negative = cytotoxicity: at 46.1 µM (top of the series)
Outline: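 KB-V1, DMEM (no phenol red) + 10% FBS; cpd pin-transferred, titration series; 72 h, 37 degrees C; CellTiter-Glo, luminescence. Data normalized, curve-fit.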
% is scaled to controls: 0 for no effect and ±100 for the full control effect; potency is read from the fitted curve at half-maximal effect.

Compound	Potency	activity change, negative = cytotoxicity
Cc1cc2oc(=O)cc(CN3CCN(S(=O)(=O)c4cccs4)CC3)c2cc1C(C)C	inconclusive: 20.6 µM [cytotoxic, single point]	
O=C(CSc1ccsc1[N+](=O)[O-])NCc1ccccc1	inconclusive: 16.4 µM [cytotoxic, single point]	
COc1ccc(-c2nc3ccccn3c2Cl)cc1	inactive	
COC/C=C/C1=CC2=CC(=O)C(C)(OC(=O)c3cnc4ccccc4n3)C(=O)C2=CN1Cc1ccccc1 (stereo unspecified)	inconclusive: 13 µM [rising, partial curve]	
Oc1cccc(C(O)CNCc2ccc(OCc3ccc(Cl)cc3Cl)cc2)c1 (stereo unspecified)	inconclusive: 16.4 µM [cytotoxic, partial curve]	
COc1ccc(S(=O)(=O)N2CCc3ccccc32)cc1NC(C)=O	inconclusive: 29.1 µM [cytotoxic, single point]	
COc1cccc(N2CCN(C(=O)CN3CCSc4ccc(S(=O)(=O)N(C)C)cc43)CC2)c1	inconclusive: 6.51 µM [cytotoxic, partial curve]	
COC(=O)c1sc(NC(=O)c2c(F)cccc2F)c(C#N)c1C	inconclusive: 32.6 µM [cytotoxic, single point]	
CCOC(=O)C(Cc1ccc(O)cc1)Nc1nc2ccccc2o1 (stereo unspecified)	active: 20.6 µM	
CCOC(=O)/C(C#N)=C(C)/C=C1\Sc2ccccc2N1CC	inconclusive: 7.31 µM [cytotoxic, partial curve, poor fit]	
COc1cc(OC)cc(C(=O)N2CCC(C(=O)c3ccc(F)cc3)CC2)c1	inconclusive: 7.31 µM [cytotoxic, partial curve]	
CC(NC(=O)COC(=O)c1ccc(Br)o1)c1ccccc1 (stereo unspecified)	inconclusive: 29.1 µM [rising, single point]	
COc1cc(NC(=S)N2CCN(C/C=C/c3ccccc3)CC2)cc(OC)c1	inactive	
Cc1ccccc1N(C(=O)c1csnn1)C(C(=O)NC1CCCC1)c1ccncc1 (stereo unspecified)	inactive	
CCOc1c(OC)ccc2c3c(c(=O)oc12)CCCC3	active: 8.2 µM	
Cc1nn(C)c(C)c1NS(=O)(=O)c1ccc(N2CCCC2=O)cc1	inconclusive: 29.1 µM [cytotoxic, single point]	
Cc1ccc2c(c1)N(CC(=O)N(Cc1ccc3c(c1)OCO3)CC1CCCO1)C(=O)C(C)O2 (stereo unspecified)	active: 8.2 µM	
CC(C(=O)NCC(=O)Nc1ccc(F)c(F)c1F)N1CCN(c2ccc(O)cc2)CC1 (stereo unspecified)	inactive	
COc1cccc(CNC(=O)Cn2c(=O)n3nc(-c4cccc(C)c4)nc3c3ccccc32)c1	inconclusive: 23.1 µM [rising, single point]	
C=CCNc1ncnc2c1[nH]c1ccc(Cl)cc12	inconclusive: 6.51 µM [cytotoxic, full curve, poor fit]	
O=S(=O)(c1ccc2ccccc2c1)N1CCN(c2ccc(O)cc2)CC1	inactive	
COc1ccccc1-c1ccc2c(c1)C(C)(Cc1cccc(F)c1)C(=O)N2 (stereo unspecified)	active: 20.6 µM	
C=CCOC(=O)Nc1snnc1C	inactive	

Compound	Potency	activity change, negative = cytotoxicity
Cc1ccnc(NC(=O)C2CCN(S(=O)(=O)c3c(C)c(C)cc(C)c3C)CC2)c1	inconclusive: 16.4 µM [cytotoxic, partial curve, poor fit]	
S=c1cn[nH]c2ccccc12	inactive	
CSc1ccc(S(=O)(=O)Nc2ccc3c(c2)OCCO3)cc1	inconclusive: 20.6 µM [cytotoxic, single point]	
COc1ccc(Nc2ncnc3onc(C)c23)cc1Cl	inconclusive: 20.6 µM [rising, single point]	
CC(OC(=O)/C=C/c1ccco1)C(=O)Nc1cccc([N+](=O)[O-])c1 (stereo unspecified)	active: 18.4 µM	
COc1ccc(C(C)=O)cc1CC1(C)C(=O)Nc2ccc(-c3cccc(C(F)(F)F)c3)cc21 (stereo unspecified)	inconclusive: 6.51 µM [cytotoxic, partial curve]	
O=C(C1=C[C@@H](c2csc3ccccc23)C[C@@H](OCc2ccc(CO)cc2)O1)N1CCN(Cc2ccccc2)CC1	inconclusive: 23.1 µM [cytotoxic, single point]	
Clc1ccc(C2=Nn3c(nnc3-c3n[nH]c4c3CCC4)SC2)cc1	active: 3.66 µM	
CCN(CC)C(=N)/C(C#N)=N/Nc1ccccc1	inconclusive: 5.8 µM [rising, partial curve, poor fit]	
COc1cc(C(N)=O)cc(Br)c1OCc1ccccc1	inconclusive: 32.6 µM [cytotoxic, single point]	
CCOC(=O)CN(C(=O)COc1nc(-c2ccccc2)cc(C)c1C#N)c1ccccc1	inactive	
O=C(c1ccc(N2CCCC2)c([N+](=O)[O-])c1)N1CCN(S(=O)(=O)c2ccccc2)CC1	inactive	
CC1=CC(C)(C)n2c(O)c(C3=NC(=S)NC3=O)c3cc(OC(=O)c4cccc5ccccc45)cc1c32	inconclusive: 3.26 µM [cytotoxic, full curve]	
Cc1ccc(S(=O)(=O)CC(C)N2CCN(C3CCCCC3)CC2)cc1 (stereo unspecified)	inconclusive: 10.3 µM [cytotoxic, partial curve]	
Cc1cccc(NC(=O)COC(=O)CSc2ccccc2)c1C	inconclusive: 29.1 µM [rising, single point]	
Cc1ccc(CN(CC(=O)NCc2ccccn2)S(=O)(=O)c2ccccc2)cc1	inactive	
O=C(CCCN1C(=O)/C(=C/c2ccccc2Cl)SC1=S)Nc1cccnc1	inconclusive: 18.4 µM [cytotoxic, single point]	
OC(CN1C2=NCCN2c2ccccc21)c1ccc(Br)cc1 (stereo unspecified)	inactive	
CC1=C(C(N)=O)C(c2ccccc2)n2nc(-c3ccncc3)nc2N1 (stereo unspecified)	inactive	
Cc1nonc1CC(=O)N1CCCC(C(=O)c2cccc(C(F)(F)F)c2)C1 (stereo unspecified)	inconclusive: 6.51 µM [cytotoxic, full curve, poor fit]	
CCOC(=O)c1ccc(NC(=S)Nc2cccc(N)n2)cc1		inconclusive: -39.8% [cytotoxic]
COc1ccc2c(C)nc(Nc3nc(C)cc(C)n3)nc2c1	inconclusive: 16.4 µM [cytotoxic, partial curve]	
Cc1ccc(CCNC(=O)c2ccc3c(c2)N(Cc2cc(C)ccc2C)C(=O)c2ccccc2S3=O)cc1 (stereo unspecified)		inconclusive: -31.5% [cytotoxic]

Gathered by group: those above containing bromine
Compound	Potency	activity change, negative = cytotoxicity
CC(NC(=O)COC(=O)c1ccc(Br)o1)c1ccccc1 (stereo unspecified)	inconclusive: 29.1 µM [rising, single point]	
COc1cc(C(N)=O)cc(Br)c1OCc1ccccc1	inconclusive: 32.6 µM [cytotoxic, single point]	
OC(CN1C2=NCCN2c2ccccc21)c1ccc(Br)cc1 (stereo unspecified)	inactive	
